Results are given in words; binding and its absence hold for the method and conditions named. Binding seen in cells or lysates may run through a third protein.
Target: AP_SAP11-like_PM19^Δ40-56-GFP ('Candidatus Phytoplasma mali' strain PM19)
Experiment: FRET or BRET

B1: AtTCP4-RFP (protein, UniProt Q8LPR5 1-420)
chain: MSDDQFHHPPPPSSMRHRSTSDAADGGCGEIVEVQGGHIVRSTGRKDRHSKVCTAKGPRDRRVRLSAHTAIQFYDVQDRLGFDRPSKAVDWLIKKAKTSIDELAELPPWNPADAIRLAAANAKPRRTTAKTQISPSPPPPQQQQQQQQLQFGVGFNGGGAEHPSNNESSFLPPSMDSDSIADTIKSFFPVIGSSTEAPSNHNLMHNYHHQHPPDLLSRTNSQNQDLRLSLQSFPDGPPSLLHHQHHHHTSASASEPTLFYGQSNPLGFDTSSWEQQSSEFGRIQRLVAWNSGGGGGATDTGNGGGFLFAPPTPSTTSFQPVLGQSQQLYSQRGPLQSSYSPMIRAWFDPHHHHQSISTDDLNHHHHLPPPVHQSAIPGIGFASGEFSSGFRIPARFQGQEEEQHDGLTHKPSSASSISRH
binding: no binding
